{"source": "PubChem BioAssay AID540256", "about": "(National Center for Advancing Translational Sciences (NCATS), 2011)", "note": "About 3,700 (1.2%) of roughly 300,000 compounds were called active. The shares of active, inactive and inconclusive entries below differ from those in the screen. Calls come from the whole dose curve; tested in HEK293 cells. Where the call is inconclusive, the potency comes from a doubtful curve fit. % is set by controls: 0 for no effect and ±100 for the full control effect; potency is the fitted concentration of half-maximal effect."}
{"experiment": "qHTS for Inhibitors of binding or entry into cells for Lassa Virus; note: nearly all actives have a fitted effect of over 50% in size", "settings": "Lassa virus pseudotype entry inhibition, cell reporter; activity change, negative = inhibition: at 37.9 µM (top of the series) unless noted"}
{"smiles": "CCOc1ccc(NC(=O)c2nc3nc(C)cc(C(F)F)n3n2)cc1", "activity change, negative = inhibition": "inactive: -2.23% [at 46.1 µM]"}
{"smiles": "COc1ccc(/C=C2\\SC(=O)N(CCNC(=O)C3=COCCO3)C2=O)cc1", "activity change, negative = inhibition": "inactive: 3.82%"}
{"smiles": "CSCCC1NC2(C(=O)Nc3c(C)cc(Cl)cc32)[C@@H]2C(=O)N(C3CCCC3)C(=O)[C@H]12", "note": "(some centres not stated)", "Potency": "inconclusive: 23.1 µM [inhibitor, partial curve]"}
{"smiles": "CCOc1ccccc1CNCCO", "activity change, negative = inhibition": "inactive: 14.6%"}
{"smiles": "O=C(C[n+]1ccc(C(=O)N/N=C/c2ccc(O)cc2)cc1)c1ccccc1", "Potency": "inconclusive: 3.55 µM [inhibitor, partial curve, poor fit]"}
{"smiles": "CN1C(=O)/C(=C\\c2ccc(N(C)C)cc2)OC1=S", "activity change, negative = inhibition": "inactive: 19% [at 46.1 µM]"}
{"smiles": "Cc1ccccc1C(=O)O/N=C(\\N)c1ccccc1", "Potency": "inconclusive: 3.16 µM [inhibitor, full curve, poor fit]"}
{"smiles": "Cc1cccc(NC(=O)c2cc3ccccc3o2)c1", "Potency": "inconclusive: 1.3 µM [activator, full curve, poor fit]"}
{"smiles": "C/C(=N\\NC(=O)c1nnn(-c2nonc2N)c1-c1ccccc1)c1ccccc1O", "Potency": "inconclusive: 1.58 µM [inhibitor, partial curve, poor fit]"}
{"smiles": "COc1ccc(OC)c(Nc2ncnc3c2nc2n3CCCC2)c1", "Potency": "inconclusive: 22.4 µM [inhibitor, single point]"}
{"smiles": "CSc1nnc(C)c(=O)n1COC(=O)c1ccc(S(=O)(=O)N(C)C)cc1", "activity change, negative = inhibition": "inactive: -1.48%"}
{"smiles": "O=C(O)c1ccccc1C(=O)NCCc1ccc(Cl)cc1", "activity change, negative = inhibition": "inactive: 4.77%"}
{"smiles": "COc1cc(O)c2c(=O)c3c(OC)c(O)ccc3oc2c1", "activity change, negative = inhibition": "inactive: 12.4%"}
{"smiles": "Cc1cc(C)c(S(=O)(=O)Nc2ccc(N3CCOCC3)cc2)c(C)c1", "Potency": "inconclusive: 35.5 µM [inhibitor, single point]"}
{"smiles": "COc1cc(C(=O)NC(=S)Nc2cccc(-c3cc4ccccc4oc3=O)c2)cc(OC)c1OC", "Potency": "inconclusive: 15.8 µM [inhibitor, partial curve, poor fit]"}
{"smiles": "O=C(/C=C/c1ccccc1)NC(=S)Nc1ccccc1C(=O)NC1CCCCC1", "Potency": "inconclusive: 20.6 µM [inhibitor, single point]"}
{"smiles": "COC(=O)c1ccc2nc(Nc3nc4c(F)cc(F)cc4s3)sc2c1", "Potency": "active: 3.16 µM"}
{"smiles": "COc1ccc2c(c1)Cc1sc(NC(=O)c3ccco3)nc1-2", "Potency": "inconclusive: 1.12 µM [activator, single point]"}
{"smiles": "Cc1ccc(NC(=O)c2ccc(CNS(=O)(=O)c3ccc4c(c3)C(C)(C)C(=O)N4C)cc2)cc1C", "Potency": "inconclusive: 35.5 µM [inhibitor, single point]"}
{"smiles": "CCCC(CCC)C(=O)Nc1ccc2c(c1)N(C(=O)CN1CCN(C)CC1)c1ccccc1CC2", "Potency": "inconclusive: 11.2 µM [inhibitor, partial curve, poor fit]"}
{"smiles": "c1ccc(-c2noc(-c3cccnc3)n2)cc1", "Potency": "inconclusive: 0.82 µM [activator, partial curve]"}
{"smiles": "COc1ccc(Cn2c(=O)c3[nH]cnc3n(-c3ccccc3C)c2=O)cc1", "Potency": "inconclusive: 1.58 µM [inhibitor, full curve, poor fit]"}
{"smiles": "COc1ccc(CNCC(O)COc2ccc(C(C)(C)c3ccccc3)cc2)cc1", "note": "(configuration not stated)", "Potency": "inconclusive: 20 µM [inhibitor, single point]"}
{"smiles": "Cc1ccc(OCC(=O)Nc2ccc(NC(=O)c3cccs3)cc2)c(C)c1", "Potency": "inconclusive: 25.1 µM [inhibitor, single point]"}
{"smiles": "CC1=CCC2(CO)COC(c3ccccc3O)C1C2", "note": "(configuration not stated)", "Potency": "inconclusive: 7.94 µM [inhibitor, partial curve]"}
{"smiles": "O=C1N/C(=N\\N=C\\c2cccs2)SC1Cc1ccc(Cl)cc1", "note": "(configuration not stated)", "Potency": "inconclusive: 7.94 µM [inhibitor, partial curve]"}
{"smiles": "CCOC(=O)Cn1cnc2c(cnn2-c2ccc(OC)cc2)c1=O", "activity change, negative = inhibition": "inactive: 2.84% [at 46.1 µM]"}
{"smiles": "CCCn1c(SCC(=O)NC(C)c2ccccc2)n[nH]c1=O", "note": "(configuration not stated)", "activity change, negative = inhibition": "inactive: 24.7%"}
{"smiles": "COC(=O)C1C(=O)c2c([nH]c(C(=O)OC3CCCC3)c2C)CC1C", "note": "(configuration not stated)", "Potency": "inconclusive: 35.5 µM [inhibitor, single point]"}
{"smiles": "O=C(OCC(=O)c1cccs1)c1ccccc1", "Potency": "inconclusive: 18.3 µM [activator, partial curve, poor fit]"}
{"smiles": "COc1ccc(N2C(=O)/C(=C\\c3ccco3)N=C2SCC(=O)NC(C)(C)C)cc1Cl", "activity change, negative = inhibition": "inactive: -4.14%"}
{"smiles": "Cc1ccc(-c2nc3n(n2)Cc2ccccc2-3)cc1", "Potency": "inconclusive: 3.55 µM [inhibitor, full curve, poor fit]"}
{"smiles": "COC(=O)c1c(N)sc(Cc2ccccc2)c1C", "activity change, negative = inhibition": "inactive: 6.69% [at 46.1 µM]"}
{"smiles": "Cc1cc(C)nc(NC(=O)NC(=O)c2ccccc2)n1", "Potency": "inconclusive: 10 µM [activator, partial curve, poor fit]"}
{"smiles": "CCOc1ccc(-n2c(SCc3ccc(C(=O)OC)o3)nc3c(c2=O)SCC3)cc1", "Potency": "inconclusive: 25.9 µM [inhibitor, single point]"}
{"smiles": "O=S(=O)(c1ccc(Cl)cc1)N1CCN(c2ncccn2)CC1", "Potency": "inconclusive: 0.794 µM [inhibitor, single point]"}
{"smiles": "Cc1ccc(C)c(S(=O)(=O)Nc2ccccc2C(=O)Nc2cc(C)on2)c1", "Potency": "inconclusive: 11.6 µM [inhibitor, single point]"}
{"smiles": "CCOc1ccccc1CNCc1c(C(=O)O)n(Cc2ccc(F)cc2)c2cc(C)ccc12", "Potency": "inconclusive: 12.6 µM [inhibitor, partial curve, poor fit]"}
{"smiles": "COc1cc(/C=C/C(=O)Nc2ccc(N3CCCCC3)c(S(=O)(=O)Nc3ccccc3Cl)c2)cc(OC)c1OC", "Potency": "inconclusive: 1.58 µM [inhibitor, partial curve, poor fit]"}
{"smiles": "Cc1cc(N2CCOCC2)nc2ccc(NC(=S)N3CCN(c4ccccc4)CC3)cc12", "Potency": "inconclusive: 29.1 µM [inhibitor, single point]"}
{"smiles": "O=C(O)c1ccccc1C(=O)Nc1ccccc1[N+](=O)[O-]", "Potency": "inconclusive: 35.5 µM [activator, single point]"}
{"smiles": "COc1ccc(C2C=C(c3ccccc3)Nc3ncnn32)cc1", "note": "(configuration not stated)", "activity change, negative = inhibition": "inactive: -18.4%"}
{"smiles": "Cc1csc(NC(=O)CSc2nncc(=O)n2N)n1", "Potency": "inconclusive: 3.55 µM [inhibitor, partial curve, poor fit]"}
{"smiles": "Cc1cc(C)c(C)c(S(=O)(=O)ON2C(=O)c3ccccc3C2=O)c1C", "Potency": "inconclusive: 12.6 µM [inhibitor, partial curve, poor fit]"}
{"smiles": "O=C1CC(c2ccc(F)cc2)c2c(c3ccccc3[nH]c2=O)O1", "note": "(configuration not stated)", "Potency": "inconclusive: 6.31 µM [activator, single point]"}
{"smiles": "CCOc1ccccc1NC(=O)Nc1cc2c(cc1N1CCCCC1)n(CC)c(=O)n2CC", "Potency": "inconclusive: 10 µM [inhibitor, partial curve]"}
{"smiles": "CCCCCOc1ccc(C(=O)Nc2ccc(S(=O)(=O)Nc3cc(C)on3)cc2)cc1", "Potency": "inconclusive: 3.16 µM [inhibitor, partial curve, poor fit]"}
{"smiles": "Cn1nc([N+](=O)[O-])nc1Oc1ccccc1F", "Potency": "inconclusive: 35.5 µM [inhibitor, single point]"}
{"smiles": "CC(=O)c1ccc(N2CCN(C(=O)CCn3cnc4onc(-c5ccc(F)cc5)c4c3=O)CC2)cc1", "activity change, negative = inhibition": "inactive: -9.89% [at 46.1 µM]"}
{"smiles": "COc1cc(OC)cc(-c2nc3ccccc3c(=O)n2OC(=O)c2ccc(C)c(C)c2)c1", "Potency": "inconclusive: 35.5 µM [inhibitor, partial curve, poor fit]"}
{"smiles": "CC(Nc1nc(-c2ccccc2F)nc2ccccc12)c1ccccc1", "note": "(configuration not stated)", "Potency": "inconclusive: 17.8 µM [inhibitor, single point]"}
{"smiles": "CCc1ccc(N(CC(=O)Nc2ccc(NC(C)=O)cc2)S(=O)(=O)c2ccccc2)cc1", "Potency": "inconclusive: 10 µM [inhibitor, partial curve, poor fit]"}
{"smiles": "O=C(COC(=O)c1c2c(nc3ccccc13)/C(=C/c1ccco1)CC2)NC1CCCC1", "Potency": "active: 12.6 µM"}
{"smiles": "COc1cc(C(=O)N2CCC(c3nc(-c4cccnc4)no3)CC2)cc(OC)c1OC", "Potency": "inconclusive: 29.1 µM [activator, single point]"}
{"smiles": "COc1cccc(N2CCN(C(=O)c3ccc4nc[nH]c4c3)CC2)c1", "activity change, negative = inhibition": "inactive: 13.1% [at 46.1 µM]"}
{"smiles": "COc1ccc(CCNC(=O)Cn2c([N+](=O)[O-])cnc2C)cc1OC", "activity change, negative = inhibition": "inactive: 13.5%"}
{"smiles": "CC(C)(C)c1ccc(C(=O)N2CCCCCC2=O)cc1", "Potency": "inconclusive: 8.2 µM [inhibitor, partial curve, poor fit]"}
{"smiles": "O=C(O)c1cc([N+](=O)[O-])ccc1NCc1cccnc1", "Potency": "inconclusive: 0.708 µM [activator, partial curve, poor fit]"}
{"smiles": "CCN(CC)S(=O)(=O)c1ccc2oc(C(=O)Nc3cc(C)ccc3OC)c(C)c2c1", "activity change, negative = inhibition": "inactive: 21.9% [at 46.1 µM]"}
{"smiles": "NS(=O)(=O)c1ccc(Nc2nc(-c3ccccc3)cs2)cc1", "activity change, negative = inhibition": "inactive: -25.5%"}
{"smiles": "Cc1nn(-c2ccccc2Cl)c(Cl)c1/C=N/Nc1nc2ccccc2s1", "Potency": "active: 1.12 µM"}
{"smiles": "CCOc1cccc(-c2nnc3sc(COc4ccc(OC)cc4)nn23)c1", "Potency": "inconclusive: 20 µM [inhibitor, partial curve, poor fit]"}
{"smiles": "C=CCOC(=O)C1=C(C)NC(SCC(=O)OCC)=C(C#N)C1c1ccc(C)cc1", "note": "(configuration not stated)", "Potency": "inconclusive: 0.259 µM [activator, single point]"}
{"smiles": "Cc1ccc(S(=O)(=O)N2CC=C(C(=O)NCc3ccccc3)CC2)cc1", "activity change, negative = inhibition": "inactive: -4.57%"}
{"smiles": "CCN(C(=O)C1CCCN(c2ncnc3c2nc2n3CCCCC2)C1)c1cccc(C)c1", "note": "(configuration not stated)", "Potency": "inconclusive: 35.5 µM [inhibitor, single point]"}
{"smiles": "COc1ccc(-c2cc(C(=O)NCc3ccco3)c3ccccc3n2)cc1OC", "Potency": "inconclusive: 35.5 µM [inhibitor, partial curve, poor fit]"}
{"smiles": "COc1ccc(Nc2nc(N3CCCCC3)c3ccccc3n2)cc1", "Potency": "inconclusive: 28.2 µM [inhibitor, single point]"}
